According to patent publication EP0773292A1, “Immortalised embryonic hippocampal cells and their use” (BAYER AG, priority 1995, dated 1997):
At least one compound was matched to its structure with a doubt left.

Key:
Assay type in all cases: cell-based, murine
[1] = tested on: HC e/n XVB cells; test: Electrophysiology: whole-cell patch-clamp, ligand-activated currents
Protocol: (§1) Electrophysiological setup: Membrane currents were measured with the patch-clamp technique in the whole-cell recording configuration (Hamill et al. 1981, Pfluegers Arch. 391:85-100). Current signals were amplified with conventional electronics (EPC-9 amplifier, HEKA Elektronik GmbH, Lambrecht, Germany), filtered at 10kHz, and sampled at 5 kHz by an interface connected to an IBM AT-compatible computer system, which also served as a stimulus generator.
(§2) Solutions and electrodes: The standard bathing solution contained (in mM): Nacl 150, KCL 5, MgCl2 1.8, HEPES 5, and glucose 10. In some experiments an equimolar amount of NaCl was replaced by 5mM BaCl2. Recording pipettes had resistances about 5MΩ (Hilgenberg, Malsfeld, Germany). The pipettes contained (in mM): KCL 140, CaCl2 0.5, EGTA 5, MgCl2 2, and HEPES 10. The pH was adjusted to 7.4. In some experiments the pipette solution was designed to minimize the contribution of voltage-activated currents. In this case, investigating the ligand-activated currents, the pipette solution contained (in mM): CsCl 140, EGTA 10, and HEPES 10.
(§3) Ligands were dissolved in the extracellular saline solution and applied via an U-tube application system. To record ligand-induced currents, the membrane potential was clamped to -70mV. For measurements of voltage-activated currents, cells were held at -70mV and every second the membrane was stepped through a 50 msec. de- or hyperpolarising test pulse to a potential between -170 and +20 mV.

[2] = tested on: HNMMCV14.1.A; test: as above; conditions: for ligand-activated currents: 14.1.A, membrane potential clamped to -70mV; for ligand induced inward currents: HNMMCV14.1.A
Protocol: as §1, §2, §3

[3] = tested on: HNMMCV13.1.F; test: Ca2+-imaging (Fura-2), rise in intracellular calcium; conditions: glutamate 10µM to 10 mM, AMPA, kainic acid, serotonine, dopamine, carbachol up to 1mM, NMDA up to 500µM
Protocol: (§4) Fluorescent Probe: Dynamic changes of intracellular calcium concentration were measured using the Fura-2 fluorescent probe (Roe et al. 1990, Cell Calcium 11:63-73). This fluorescent dye was chosen because of its selectivity, high quantum yield and extinction co-efficient. Fura-2 permeates the living cell as a acetoxymethylester and becomes trapped within the cell after hydrolysis by intracellular esterases. The calcium-sensitive free acid of Fura-2 is able to bind to calcium ions inside the cell. Fura-2 has an excitation maximum at 380 nm and the Fura2/calcium complex peaks at 340 nm. A change in intracellular calcium concentration was calculated by recording fluorescent video images at wavelengths of 340nm and 380nm excitation and 510nm emission and by dividing the grey values of the digitized video images of 380nm from 340nm.
(§5) Loading cells with Fura-2: A stock solution with 2mM Fura-2-acetoxymethylester in dimethylsulfoxide (DMSO) was diluted to 5-10 µM with serum free Minimal Essential Medium (MEM, Gibco) containing 1.5% bovine serum albumin and 5 mM calcium chloride. The cells were incubated in a Falcon 96 well plate for 45-60 minutes at 37°C. Subsequently the cells were washed twice in N-(2-Hydroxyethyl)piperazine-N'-(2-ethanesulfonic acid) (HEPES, 5mM) buffered Tyrode solution (HEPES buffered salt solution containing 130 mM NaCl, 5 mM KCl, 2 mM CaCl2, 1 mM MgCl2, 5mM NaHCO3, 11 mM Glucose).
(§6) Imaging procedure: 100 µl of Tyrode buffer was added to the plate wells and the cells were sequencially exposed to light at 340 nm and 380 nm under a fluorescent microscope (Nikon Diaphot). The exposition time was 100 ms. A series of video images at 3 second intervals was acquired and stored as digitised pictures in the image boards of an image analysis computer (Leica, Quantimet 570). After the acquisition of 8 images the test substances were applied. The grey levels of the cells, which correspond to the fluorescence intensity, were measured in the recorded video images. The ratio was determined by dividing the measured grey levels of the "380 nm images" by the grey levels of the "340 nm images" either from averaged images or from individual cells. For averaged results, the grey levels were measured over the whole images.
(§7) The cells were loaded with Fura 2/AM between day 3 and 7 in culture. A number of agonists were tested for their ability to activate specific receptors on the cell surface which leads to a rise in intracellular calcium. The rise in calcium concentration in the cytoplasm can occur after activation of specific calcium channels in the cell membrane, after activation of neurotransmitter receptors directly coupled to ion channels that are permeable to calcium ions (i.e. NMDA or AMPA type glutamate receptors), or by activation of receptors, which propagate the signal through the activation of specific G-proteins, which regulate the activity of different enzymes in the interior of the cell (Connor, Cell Calcium 14 (1993), 185-200; Crouch and Hendry, Medical Res. Rev. 13 (1993), 105-123). The activation of phospholipase C generates the second messengers diacylglycerol and inositoltriphosphate from phospholipids in the cell membrane. The binding of inositoltriphosphate to receptors localised on internal vesicles which store calcium ions leads to a transient rise in the concentration of calcium ions in the cytoplasm (Berridge, M.J. 1993, Nature 361: 315-325).

[4] = tested on: HNMMCV14.1.A; test: as above; conditions: glutamate 10µM to 10 mM, AMPA, kainic acid, serotonine, dopamine, carbachol up to 1mM, NMDA up to 500µM
Protocol: as §4, §5, §6, §7

[5] = tested on: HNMMCV11.2.0; test: as above; conditions: glutamate 10µM to 10 mM, AMPA, kainic acid, serotonine, dopamine, carbachol up to 1mM, NMDA up to 500µM
Protocol: as §4, §5, §6, §7

[6] = tested on: HNMMCV13.1.E; test: as above; conditions: glutamate 10µM to 10 mM, AMPA, kainic acid, serotonine, dopamine, carbachol up to 1mM, NMDA up to 500µM
Protocol: as §4, §5, §6, §7

[7] = tested on: HC e/n XV.B cells; test: as above; conditions: undifferentiated HC e/n XV.B cells; AMPA, kainate up to 1mM, NMDA up to 500µM
Protocol: as §4, §5, §6, §7

[8] = tested on: HNMMCV13.1.E; test: Electrophysiology: whole-cell patch-clamp, ligand-activated currents
Protocol: as §1, §2, §3

[9] = tested on: metabotropic glutamate receptor(s) (mGluR) expressed by HNMMCV14.1A cells; test: Second messenger: phosphoinositide hydrolysis, accumulation of 3H-inositol phosphates; conditions: result in words
Protocol: Phosphoinositide hydrolysis was determined by measuring the accumulation of ^3H-inositol phosphates. The cells were plated in 48-well plates (Costar) at a density of 10000 cells per well and incubated for 4-5 days at 37°C, 7% CO2. Then the cells were labeled by incubation with 4 µCi of myo-2-^3H-inositol per ml medium (specific activity: […]: Amersham). After 24 h LiCl (10 mM final concentration) was added to the cells for 1 h. Agonists were then added at the concentrations indicated. The incubation was stopped after 1 h by replacing the medium with 200 µl ice-cold methanol. 400 µl of destilled water was added and the sample was directly applied to AG-1X8 ion exchange columns (AG-1X8 resin: BioRad). Free inositol and glycerophosphoryl-inositol were washed away with 16 ml destilled water followed by 10 ml 5 mM disodium-tetraborate, 60 mM sodium formate. Total ^3H-inositol phosphates (IP1, IP2, IP3) were eluted with 7 ml of 100 mM formic acid, 1 M ammonium formate. Radioactivity of the eluted ^3H-inositol phosphates was determined by liquid scintillation counting after addition of 13 ml liquid scintillation cocktail (Ultima Gold: Canberra Packard). Measurements were performed in triplicates for each experimental point. Untreated controls were set as 100% and the other values calculated in relation to this. […]

CN[C@H](CC(=O)O)C(=O)O [NMDA, N-methyl-D-aspartate] was tested, and the ligand-activated currents ([1]; XV. B (with EGF, undifferentiated), membrane potential clamped to -70mV) was “+ / -”, the “ligand induced inward currents” value ([1]; differentiated HC e/n XVB cells, AMPA 100µM, NMDA, kainate, glutamate 1mM) was “evoked responses with different peak amplitudes” and the ligand-activated currents [2] was “+ / -”. For the same compound, the “transient rise in intracellular calcium concentration” value [3] was “did not result in significant calcium signals”, the “transient rise in intracellular calcium concentration” value [4] was “did not result in significant calcium signals” and the “transient rise in intracellular calcium concentration” value [5] was “did not result in significant calcium signals”. The “transient rise in intracellular calcium concentration” value [6] was “did not result in significant calcium signals” and the “transient rise in intracellular calcium concentration” value [7] was “did not result in significant calcium signals”.
With CC(=O)OCC[N+](C)(C)C [Acetylcholine, acetylcholine] the “ligand induced inward currents” value [2] was “only a minority”.
For N[C@@H](CCC(=O)O)C(=O)O [Glutamate, L-glutamate], the ligand-activated currents [2] was “+ / -”, the “ligand induced inward currents” value [2] was “only small inward currents” and the “ligand induced inward currents” value [8] was “only small inward currents”. For the same compound, the “transient rise in intracellular calcium concentration” value [3] was “significant rise in calcium concentration”, the “transient rise in intracellular calcium concentration” value [4] was “significant rise in calcium concentration” and the “transient rise in intracellular calcium concentration” value [5] was “significant rise in calcium concentration”. The “transient rise in intracellular calcium concentration” value [6] was “significant rise in calcium concentration” and the “effect on inositolphosphate accumulation” value [9] was “concentration dependent increase”.
In the case of N[C@H](CCC(=O)O)C(=O)O [D-glutamate], the “effect on inositolphosphate accumulation” value [9] is reported as “without effect”.
